Reference: PubChem BioAssay AID493014 (National Center for Advancing Translational Sciences (NCATS), 2011)
Some of the results follow. Further columns of the screen follow, without active or inactive calls. The list favours compounds with an active or inconclusive main result. Potencies come from curve fits of mixed quality, noted in brackets.

Test: qHTS Assay to Find Inhibitors of Chronic Active B-Cell Receptor Signaling
Conditions: ABC-DLBCL IkBa-CBG/CBR reporter, luminescence ratio (green luciferase fused to IkBa over red control in TMD8 lymphoma cells), 4 h
Summary of the method: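 Doxycycline induced both beetle luciferases in TMD8 lymphoma cells; IKK-driven degradation limits the IkappaBalpha-fused green signal, while red luminescence normalises for cell number and nonspecific effects. Compounds tested up to 46 uM, 4 hrs.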

[1] = measured here: CBR red luminescence, cell number
[2] = measured here: IkBa-CBG green luminescence

SMILES | AC50 [1] | AC50 [2]
Cc1ccc(-c2cc(-c3ccccc3)[nH]c(=S)c2C#N)cc1 | 14.6 µM [rising, partial curve, poor fit] | –
c1ccc(CCCNc2ncnc3nc[nH]c23)cc1 | 23.1 µM [falling, single point] | –
CC1CC(CCC(=O)NC(=S)Nc2ccc(Cl)cn2)C(=O)O1 (configuration not stated) | 35.5 µM [rising, single point] | –
O=C(COc1ccc2c(c1)OCO2)Nc1ccccc1F | 7.94 µM [falling, partial curve] | –
COc1ccc(-c2c3c(=O)n(C)c(=O)n(C)c3cn2-c2ccccc2O)cc1 | 35.5 µM [falling, single point] | –
O=C(NCc1ccco1)c1ccccc1O | 17.8 µM [rising, partial curve, poor fit] | –
COc1ccccc1/C=C(/C(=O)OCC(=O)Nc1ccc(N(C)C)cc1)c1ccccc1 | 29.1 µM [falling, single point] | –
O=C(Nc1nc2c(cc3c4c(cccc42)CC3)s1)c1ccccc1Cl | 0.116 µM [falling, full curve] | –
Oc1ccc(Nc2nc(-c3ccc4ccccc4c3)cs2)cc1 | 0.291 µM [falling, full curve, poor fit] | 18.4 µM [rising, partial curve, poor fit]
COc1ccc(C(=O)N2CCN=C2SCc2cccnc2)c(OC)c1 | 1.64 µM [rising, partial curve, poor fit] | –
N#CCC(=O)N/N=C\c1ccc(OC/C=C/c2ccccc2)cc1 | 1.26 µM [falling, full curve, poor fit] | –
Cn1cnnc1SCc1ccc(F)c2ccccc12 | 5.8 µM [rising, partial curve] | –
CC(=O)N=c1sc2cc(C)ccc2n1C | 0.184 µM [falling, full curve, poor fit] | –
CS(=O)(=O)N(CC(=O)N1CCN(c2ccccc2)CC1)Cc1ccc(Cl)cc1 | 3.26 µM [falling, full curve, poor fit] | –
Cc1nc2ccccc2n1CCc1nc2c3ccccc3nc(SCC(=O)NCc3ccco3)n2n1 | 6.31 µM [falling, single point] | –
O=C(CN1C(=O)NC2(CCCC2)C1=O)OCc1cc(=O)n2cc(Br)ccc2n1 | 0.112 µM [rising, full curve, poor fit] | –
CC(C)(C)Cc1nnc(NC(=O)c2ccc([N+](=O)[O-])cc2)s1 | 0.184 µM [rising, full curve, poor fit] | –
COc1ccc(NC(=O)O/N=C/c2ccccc2Cl)cc1 | 11.2 µM [rising, single point] | –
COc1ccc(C(=O)NC(=S)Nc2ccc(Cl)c(C(=O)O)c2)cc1 | 17.8 µM [falling, partial curve] | –
COC(=O)CSc1nnc(-c2ccc(S(=O)(=O)N3CCCCC3)cc2)o1 | 32.6 µM [rising, single point] | –
COc1ccc(/C=C\c2onc(C)c2S(=O)(=O)N2CCC(C(=O)NCc3ccco3)CC2)cc1 | 4.47 µM [rising, partial curve, poor fit] | –
O=C(CCCN1C(=O)c2cccc3cccc(c23)C1=O)Nc1ccon1 | 14.1 µM [rising, partial curve, poor fit] | –

SMILES | AC50 [1] | AC50 [2]
Cc1cccc2c(C(=O)N3CCN(c4ccccc4)CC3)cc(-c3ccncc3)nc12 | 15.8 µM [rising, single point] | 22.4 µM [falling, single point]
Cc1occc1C(=O)NCCCCc1ccccc1 | 5.8 µM [falling, partial curve] | –
COc1ccc(Cn2c(C(F)(F)F)ccc(C(N)=O)c2=O)cc1 | 0.501 µM [rising, full curve, poor fit] | –
CC(C)CC1NC(=O)N(CC(=O)N2CCN(S(=O)(=O)c3ccc(Cl)cc3)CC2)C1=O (configuration not stated) | 2.06 µM [rising, single point] | –
COc1cc(/C=N/NC(=O)c2ccc3ccccc3c2)ccc1Oc1ccc([N+](=O)[O-])cn1 | 7.31 µM [falling, partial curve] | –
CCC1=NN2C(=N)/C(=C\c3ccc(OCCOc4ccccc4)c(OC)c3)C(=O)N=C2S1 | 0.631 µM [rising, full curve, poor fit] | –
COc1cccc2[nH]c(C(=O)NCCCN3CCCC3=O)cc12 | 3.16 µM [falling, partial curve, poor fit] | –
COc1ccc(-c2csc(NC(=O)CSc3nnnn3C)n2)cc1OC | 6.51 µM [rising, single point] | –
CCOc1ccc(C(=O)NC(=S)Nc2cccnc2)cc1[N+](=O)[O-] | 3.55 µM [rising, single point] | –
Cn1c(Cl)cnc1C1CC(=O)c2cc(Cl)ccc2O1 (configuration not stated) | 25.9 µM [falling, single point] | –
Cc1cccc(NC(=O)C2COc3ccccc3O2)c1 (configuration not stated) | 0.398 µM [rising, partial curve, poor fit] | –
CC(=O)N1CCN(c2ccc(NC(=O)c3ccccc3Cl)cc2)CC1 | 25.1 µM [falling, single point] | –
Cc1ccc(F)cc1NC(=O)CN1C(=O)NC(C)(c2ccc3c(c2)OCCO3)C1=O (configuration not stated) | 29.1 µM [rising, single point] | –
COc1ccc(CCNc2nc(-c3ccccn3)cs2)cc1OC | 11.2 µM [falling, partial curve] | –
O=C(N/N=C\c1ccc(S(=O)(=O)O)o1)c1ccc2c(c1)OCO2 | 17.8 µM [falling, single point] | –
C=CCc1cccc2cc(C(=O)Nc3ccc(CC(=O)O)cc3)c(=O)oc12 | 1.12 µM [falling, full curve] | –
COc1ccc(CCC(=O)Nc2cc3c4c(c2)CCC(=O)N4CCC3)cc1 | 6.51 µM [rising, single point] | –
CCOC(=O)c1c(NC(=O)CSc2nnc(-c3cccnc3)n2Cc2ccco2)sc(C)c1C | 11.2 µM [falling, partial curve, poor fit] | –
CC(C)CSc1nnc2c3ccccc3n(C)c2n1 | 1 µM [rising, full curve, poor fit] | –
N#CC1=CN(Cc2ccccc2)C=C(/C=N/Nc2ccccc2)C1 | 14.1 µM [falling, single point] | –
COc1ccccc1-n1c(SCC(=O)Nc2ccc(F)cc2)nc2c(c1=O)SCC2 | 20.6 µM [falling, single point] | –
Nc1cc(-c2ccccc2)nn1Cc1ccc(Cl)cc1 | 35.5 µM [falling, single point] | –

5 of the compounds above, as a markdown table.

| SMILES | AC50 [1] | AC50 [2] |
| --- | --- | --- |
| c1ccc(CCCNc2ncnc3nc[nH]c23)cc1 | 23.1 µM [falling, single point] | – |
| COc1ccc(C(=O)N2CCN=C2SCc2cccnc2)c(OC)c1 | 1.64 µM [rising, partial curve, poor fit] | – |
| Cn1cnnc1SCc1ccc(F)c2ccccc12 | 5.8 µM [rising, partial curve] | – |
| Cc1cccc2c(C(=O)N3CCN(c4ccccc4)CC3)cc(-c3ccncc3)nc12 | 15.8 µM [rising, single point] | 22.4 µM [falling, single point] |
| C=CCc1cccc2cc(C(=O)Nc3ccc(CC(=O)O)cc3)c(=O)oc12 | 1.12 µM [falling, full curve] | – |

(further entries)

SMILES | AC50 [1] | AC50 [2]
Cc1ccc(OCCCn2c(CO)nc3ccccc32)cc1 | 2.59 µM [rising, partial curve, poor fit] | –
COc1ccc(CCN=C(N)Nc2nc(C)cc(C)n2)cc1 | 14.1 µM [falling, partial curve, poor fit] | –
COc1ccc(C2CC(c3cccs3)=Nc3ccccc3S2)cc1 (configuration not stated) | 16.4 µM [falling, single point] | 25.9 µM [falling, single point]
COc1ccc(S(=O)(=O)CCC(=O)Nc2cccc(OC)c2)cc1 | 0.708 µM [rising, partial curve, poor fit] | –
COc1ccccc1C1(CC(=O)Nc2nccs2)CCOC(C(C)C)C1 (configuration not stated) | 5.01 µM [falling, partial curve, poor fit] | –
COc1ccc(C(=O)NC2=Nc3ccccc3N=C(C)C2c2ccccc2)cc1 (configuration not stated) | 31.6 µM [falling, single point] | –
CCOC(=O)c1cc(-c2ccccc2)n(CC(=O)N(C)c2ccc(OC)cc2)c1C | 1.78 µM [rising, full curve, poor fit] | –
CCOC(=O)c1ccc(S(=O)(=O)NCC(c2ccc(N(C)C)cc2)c2c[nH]c3ccccc23)cc1 (configuration not stated) | – | 20.6 µM [rising, partial curve, poor fit]
O=C(O)c1cccc(NC(=S)NC(=O)c2ccc3ccccc3c2)c1 | 4.47 µM [falling, full curve] | –
CC(C)C(C(=O)Nc1ncn[nH]1)N1C(=O)c2ccccc2C1=O (configuration not stated) | 29.1 µM [falling, single point] | –
Clc1ccc(-c2cc(COc3ccccc3)no2)cc1Cl | 2.24 µM [rising, full curve, poor fit] | –
CCOC(=O)c1ccccc1NC(=O)COc1ccccc1 | 7.31 µM [falling, partial curve, poor fit] | –
COCCNCC(=O)NCC12CC3CC(CC(C3)C1)C2 | 11.6 µM [rising, partial curve, poor fit] | –
Nc1cc(Cl)nc(N/N=C/c2ccc([N+](=O)[O-])cc2)n1 | 6.51 µM [rising, single point] | –
CCOC(=O)CC(=O)CSc1nc(N)c(C#N)c(-c2ccc(F)cc2)c1C#N | 7.08 µM [falling, partial curve, poor fit] | –
COc1cccc(NC(=O)Nc2cc(C)ccc2F)c1 | 6.31 µM [falling, partial curve] | –
Cc1ccc(C(=O)N(Cc2nc(-c3ccc(C)cc3)no2)C(C)C)cc1 | 4.11 µM [falling, single point] | –
CCOC(=O)c1c(/N=C/C2C(=O)CCCC2=O)sc(C)c1C | 14.6 µM [rising, partial curve, poor fit] | –
COC(=O)C1CCN(C(=O)c2cc(-c3ccc(Cl)s3)nc3ccccc23)CC1 | 29.1 µM [falling, single point] | –
COc1ccc(S(=O)(=O)N2CCOCC2)cc1NC(=O)/C=C/c1ccccc1 | – | 14.6 µM [falling, partial curve, poor fit]
